These are yes or no findings as the source states them, for the method shown. Binding seen in cells or lysates may run through a third protein. Some entries that bind do so weakly or less than the wild type. Tags and fused reporters may be left off the sequences shown.
Experiments:
[1] = target: T1, AZI1 proline-rich domain (PRD, residues 25-72), intein-chitin-binding-protein fusion (Arabidopsis thaliana) (UniProt Q9SU35); experiment: pull-down; AZI1 peptides immobilized on chitin agarose by the intein-chitin-binding-protein tag, incubated with lysates of E. coli expressing GST-MPK3 or GST-MPK6; captured proteins seen by Coomassie staining and anti-GST immunoblot; only the target purified
T1 sequence: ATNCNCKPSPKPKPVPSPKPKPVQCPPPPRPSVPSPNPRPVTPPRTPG

Chains of the proteins cited; added tags and fusions are not shown.
UniProt Q39026: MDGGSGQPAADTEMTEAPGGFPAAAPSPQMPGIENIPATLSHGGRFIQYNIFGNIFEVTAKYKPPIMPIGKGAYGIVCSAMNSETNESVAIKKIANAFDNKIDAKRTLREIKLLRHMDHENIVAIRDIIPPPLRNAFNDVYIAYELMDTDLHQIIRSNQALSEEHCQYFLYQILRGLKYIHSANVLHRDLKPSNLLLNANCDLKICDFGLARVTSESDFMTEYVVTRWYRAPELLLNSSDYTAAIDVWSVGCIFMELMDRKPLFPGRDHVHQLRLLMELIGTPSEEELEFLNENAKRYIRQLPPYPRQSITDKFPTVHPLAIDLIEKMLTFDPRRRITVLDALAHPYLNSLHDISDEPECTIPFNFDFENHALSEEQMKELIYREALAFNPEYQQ

[2] = target: T2, AZI1 PRD-8CM (residues 25-end), intein-chitin-binding-protein fusion (Arabidopsis thaliana) (UniProt Q9SU35); experiment: as above
T2 sequence: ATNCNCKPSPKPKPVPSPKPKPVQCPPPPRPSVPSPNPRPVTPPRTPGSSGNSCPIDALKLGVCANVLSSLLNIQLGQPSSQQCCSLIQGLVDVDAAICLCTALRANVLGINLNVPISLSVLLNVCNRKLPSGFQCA

[3] = target: T3, MKK4-cYFP (Arabidopsis) (UniProt O80397); experiment: split reporter; BiFC in Arabidopsis mesophyll protoplasts, transient expression; repeated several times
T3 sequence: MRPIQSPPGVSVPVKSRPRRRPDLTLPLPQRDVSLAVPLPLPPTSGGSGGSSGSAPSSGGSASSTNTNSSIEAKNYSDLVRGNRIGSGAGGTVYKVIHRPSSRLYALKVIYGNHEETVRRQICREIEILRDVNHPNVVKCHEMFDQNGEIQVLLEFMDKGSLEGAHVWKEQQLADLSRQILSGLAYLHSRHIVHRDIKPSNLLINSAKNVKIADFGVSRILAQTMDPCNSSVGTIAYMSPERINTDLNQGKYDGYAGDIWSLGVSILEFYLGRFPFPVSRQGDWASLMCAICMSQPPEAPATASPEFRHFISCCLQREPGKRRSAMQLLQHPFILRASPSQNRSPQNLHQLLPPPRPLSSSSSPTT

In the case of “GST-MPK6 (from UniProt Q39026 1-395) (enzyme)”, the binding [1] is reported as “binds” and the binding [2] is reported as “binds”.

B1: GST-MPK3 (enzyme, UniProt Q39023 1-370)
chain: MNTGGGQYTDFPAVETHGGQFISYDIFGSLFEITSKYRPPIIPIGRGAYGIVCSVLDTETNELVAMKKIANAFDNHMDAKRTLREIKLLRHLDHENIIAIRDVVPPPLRRQFSDVYISTELMDTDLHQIIRSNQSLSEEHCQYFLYQLLRGLKYIHSANIIHRDLKPSNLLLNANCDLKICDFGLARPTSENDFMTEYVVTRWYRAPELLLNSSDYTAAIDVWSVGCIFMELMNRKPLFPGKDHVHQMRLLTELLGTPTESDLGFTHNEDAKRYIRQLPNFPRQPLAKLFSHVNPMAIDLVDRMLTFDPNRRITVEQALNHQYLAKLHDPNDEPICQKPFSFEFEQQPLDEEQIKEMIYQEAIALNPTYG
B1 was tested, and the binding [1] was “binds” and the binding [2] was “binds”.

B2: MPK3-nYFP (enzyme, UniProt Q39023 1-370)
chain: MNTGGGQYTDFPAVETHGGQFISYDIFGSLFEITSKYRPPIIPIGRGAYGIVCSVLDTETNELVAMKKIANAFDNHMDAKRTLREIKLLRHLDHENIIAIRDVVPPPLRRQFSDVYISTELMDTDLHQIIRSNQSLSEEHCQYFLYQLLRGLKYIHSANIIHRDLKPSNLLLNANCDLKICDFGLARPTSENDFMTEYVVTRWYRAPELLLNSSDYTAAIDVWSVGCIFMELMNRKPLFPGKDHVHQMRLLTELLGTPTESDLGFTHNEDAKRYIRQLPNFPRQPLAKLFSHVNPMAIDLVDRMLTFDPNRRITVEQALNHQYLAKLHDPNDEPICQKPFSFEFEQQPLDEEQIKEMIYQEAIALNPTYG
For B2, the binding [3] was “binds”.

From PMC3973493
